{"source": "PubChem BioAssay AID540276", "about": "(National Center for Advancing Translational Sciences (NCATS), 2011)", "note": "The campaign covered roughly 300,000 compounds. About 5,400 (1.8%) were called active. Inconclusive results, whose numbers are uncertain, are shown with a selection of clear calls. Calls follow the shape of the full dose curve; tested in HEK293 cells. Potencies of inconclusive entries are doubtful fits and often do not repeat. % is scaled to controls: 0 for no effect and ±100 for the full control effect; potency is read from the fitted curve at half-maximal effect.", "data": [{"assay": "qHTS for inhibitors of binding or entry into cells for Marburg Virus", "conditions": "Marburg virus pseudotyped entry inhibition, cell reporter; activity change, negative = inhibition: at 37.8 µM (top of the series) unless noted", "values": [{"smiles": "CC(C)n1cc(/C=C2/NC(=O)N(c3cccc(Cl)c3)C2=O)c2ccccc21", "Potency": "inconclusive: 18.3 µM [inhibitor, partial curve, poor fit]"}, {"smiles": "CC(=O)c1ccc(NC(=O)Nc2ccc([N+](=O)[O-])cc2)cc1", "Potency": "inconclusive: 0.058 µM [inhibitor, full curve, poor fit]"}, {"smiles": "CCOC(=O)c1nn(-c2ccc(C)cc2)cc1C(=O)c1ccccc1", "Potency": "inconclusive: 0.259 µM [activator, full curve, poor fit]"}, {"smiles": "NNC(=O)c1oc2nc(-c3ccccc3)cc(-c3ccccc3)c2c1N", "Potency": "inconclusive: 11.2 µM [inhibitor, single point]"}, {"smiles": "Cc1ccoc1C(=O)NCCNc1ccc(Cl)cc1[N+](=O)[O-]", "Potency": "inconclusive: 6.51 µM [inhibitor, partial curve, poor fit]"}, {"smiles": "Cc1ccc(-n2c(SCC(=O)NCc3ccccc3)nc3c([nH]c4ccccc43)c2=O)cc1", "activity change, negative = inhibition": "inactive: 0.321% [at 46.1 µM]"}, {"smiles": "CC1CC(C)CN(C2CCCCC2NS(=O)(=O)c2ccc(Cl)cc2)C1", "note": "(stereo not drawn)", "Potency": "inconclusive: 3.55 µM [inhibitor, full curve, poor fit]"}, {"smiles": "COc1ccc2cc(C#N)c(SCC(=O)Nc3nonc3C)nc2c1", "Potency": "inconclusive: 3.55 µM [activator, partial curve, poor fit]"}, {"smiles": "O=C(O)c1cc(-c2ccc(/C=C3/SC(=S)N(Cc4ccccc4)C3=O)o2)ccc1Cl", "activity change, negative = inhibition": "inactive: 10.4% [at 46.1 µM]"}, {"smiles": "Cc1cc(=O)[nH]c2nnc(-c3ccc(Cl)cc3)n12", "Potency": "inconclusive: 15.8 µM [inhibitor, single point]"}, {"smiles": "O=C(COC(=O)c1cnc(Cl)c(Cl)c1)NCc1cccs1", "Potency": "inconclusive: 35.5 µM [activator, single point]"}, {"smiles": "CCCCN1C(=O)C(=O)N(CC(=O)c2ccc3c(c2)OCO3)C1=O", "activity change, negative = inhibition": "inactive: 4.07%"}, {"smiles": "O=C(CSCc1ccccc1)Nc1ccc(Cl)cn1", "activity change, negative = inhibition": "inactive: 7%"}, {"smiles": "COC(=O)c1sc(N)c(C(=O)OC)c1CSc1nc2sc3c(c2c(=O)n1C)CCC3", "Potency": "inconclusive: 29.1 µM [inhibitor, single point]"}, {"smiles": "CCn1c(CCNC(=O)c2ccc(C)cc2)nnc1SCc1ccc(Cl)c(Cl)c1", "Potency": "inconclusive: 7.08 µM [inhibitor, partial curve, poor fit]"}, {"smiles": "CC(=O)c1ccc2c(c1)Cc1cc(C(C)=O)ccc1-2", "activity change, negative = inhibition": "inactive: -5.48%"}, {"smiles": "Cc1cc(C)c(OCCOCCN2CCCC2)c(C)c1", "Potency": "inconclusive: 6.31 µM [activator, single point]"}, {"smiles": "Cc1cc(-c2nnc(SCC(=O)Nc3ccccc3C(F)(F)F)o2)c(C)n1-c1ccccc1", "Potency": "inconclusive: 15.8 µM [inhibitor, single point]"}, {"smiles": "OCCN1CCN(c2ncnc3c2c(-c2ccccc2)cn3-c2ccc(F)cc2)CC1", "Potency": "inconclusive: 12.6 µM [inhibitor, partial curve, poor fit]"}, {"smiles": "O=C(CCc1ccccc1)Nc1nnc(-c2ccc3c(c2)OCCO3)o1", "activity change, negative = inhibition": "inactive: 13.4%"}, {"smiles": "CCCCc1ccc(NC(=O)N2CCNC(=O)C2CC(=O)Nc2ccsc2C(=O)OC)cc1", "note": "(stereo not drawn)", "activity change, negative = inhibition": "inactive: -0.0766%"}, {"smiles": "Cc1cc(C)n(C(=O)CNC(=O)C2COc3ccccc3O2)n1", "note": "(stereo not drawn)", "activity change, negative = inhibition": "inactive: 1.4%"}, {"smiles": "COc1ccc(NC(=O)CSc2nc3[nH]ncc3c(=O)n2-c2ccccc2C)cc1OC", "Potency": "inconclusive: 2.82 µM [activator, single point]"}, {"smiles": "Cc1cc(C)cc(NC(=O)N2CCc3ccccc3C2)c1", "Potency": "inconclusive: 2 µM [activator, partial curve, poor fit]"}, {"smiles": "COc1ccc(NS(=O)(=O)c2ccc3c(c2)CCO3)cc1", "Potency": "inconclusive: 35.5 µM [inhibitor, single point]"}, {"smiles": "CC(=O)n1nc(-c2ccccc2)nc1NCc1ccc(F)cc1", "activity change, negative = inhibition": "inactive: 38.6%"}, {"smiles": "FC(F)(F)c1ccc(-c2nc(=S)[nH][nH]2)cc1", "Potency": "inconclusive: 5.01 µM [activator, single point]"}, {"smiles": "CC(Nc1nc(N2CCCC2)nc2ccccc12)c1ccccc1", "note": "(stereo not drawn)", "Potency": "inconclusive: 14.1 µM [inhibitor, single point]"}, {"smiles": "CCOC(=O)c1c(CN2CCCCC2)n(C)c2ccc(OC)c(S(=O)(=O)c3ccccc3)c12", "Potency": "inconclusive: 0.282 µM [inhibitor, partial curve, poor fit]"}, {"smiles": "Cc1ccc(C(=O)Nc2nnc(-c3ccco3)o2)cc1C", "Potency": "inconclusive: 0.316 µM [activator, full curve, poor fit]"}, {"smiles": "O=C(CSc1nccn1Cc1ccco1)Nc1ccccc1F", "activity change, negative = inhibition": "inactive: -0.585%"}, {"smiles": "Cc1c(CC(=O)O)c(=O)oc2cc(OCc3ccc(Cl)cc3)ccc12", "Potency": "inconclusive: 7.94 µM [inhibitor, partial curve]"}, {"smiles": "COc1ccc(N2C(=O)CSC2c2ccccc2F)c(OC)c1", "note": "(stereo not drawn)", "Potency": "inconclusive: 35.5 µM [inhibitor, single point]"}, {"smiles": "CCc1nc2ccccc2n1CCCCOc1ccccc1C", "activity change, negative = inhibition": "inactive: -4.53% [at 46.1 µM]"}, {"smiles": "CCC1(C)Cc2ccccc2-c2nc(SC)[nH]c(=O)c21", "note": "(stereo not drawn)", "Potency": "inconclusive: 10 µM [inhibitor, partial curve, poor fit]"}, {"smiles": "COc1cccc(C(=O)COC(=O)c2ccc(NC(C)=O)cc2)c1", "Potency": "inconclusive: 2.24 µM [activator, full curve, poor fit]"}, {"smiles": "Cc1cc(NC(=O)c2c([N+](=O)[O-])cnn2C)no1", "Potency": "inconclusive: 0.164 µM [inhibitor, full curve, poor fit]"}, {"smiles": "COc1cccc(NC(=O)C(=O)NCCC2CCCCN2S(=O)(=O)c2cccs2)c1", "note": "(stereo not drawn)", "Potency": "inconclusive: 31.6 µM [inhibitor, single point]"}, {"smiles": "Cc1cc(NC(=O)CSc2nc3c(C)cccc3cc2C#N)no1", "Potency": "inconclusive: 11.2 µM [inhibitor, partial curve]"}, {"smiles": "Cc1ccc(C(=O)/C=C\\Nc2cccc(O)c2)cc1", "Potency": "inconclusive: 16.4 µM [inhibitor, single point]"}, {"smiles": "Cc1cccc(/C=C\\c2nc3ccccc3c(=O)[nH]2)c1", "Potency": "inconclusive: 0.355 µM [activator, full curve, poor fit]"}, {"smiles": "CC(Oc1ccccc1Cl)C(=O)Nc1ccc(S(=O)(=O)Nc2nccs2)cc1", "note": "(stereo not drawn)", "activity change, negative = inhibition": "inactive: 6.16% [at 46.1 µM]"}, {"smiles": "Cc1ccc(C)c(CN2CCCN(Cc3cc(C)ccc3C)S2(=O)=O)c1", "Potency": "inconclusive: 35.5 µM [inhibitor, single point]"}]}]}
